Reference: article PMC4422123
No constants are given. Whether binding was seen depends on the method and setting. For some of these results: Binding seen in cells or lysates may run through a third protein. Some results given as binding are weak or reduced against the parent protein; the word gives no strength. Sequences can lack the tags named with a protein.

What was measured:
[1] = target: T1, 2HA-UOX, in vitro synthesized (mouse) (UniProt P25688); test: condition: only with 1 µM recombinant PEX5 during co-synthesis and chase; co-IP; the two proteins co-synthesized and chased 4 h in the presence of 1 µM recombinant PEX5; anti-HA antibody agarose beads, 3 h at 4°C, buffer A
T1 sequence (chain, 35S-methionine labelled): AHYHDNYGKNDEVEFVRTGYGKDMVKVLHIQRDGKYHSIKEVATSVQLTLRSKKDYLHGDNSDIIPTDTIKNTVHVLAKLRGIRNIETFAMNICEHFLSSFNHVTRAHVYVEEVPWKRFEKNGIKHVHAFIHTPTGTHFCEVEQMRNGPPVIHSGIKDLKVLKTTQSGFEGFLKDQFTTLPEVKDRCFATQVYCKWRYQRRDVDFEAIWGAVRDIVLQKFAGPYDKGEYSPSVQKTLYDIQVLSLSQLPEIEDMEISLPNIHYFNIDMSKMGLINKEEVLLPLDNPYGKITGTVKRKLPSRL

[2] = target: T1, 2HA-UOX, in vitro synthesized (mouse); test: condition: only synthesized individually and mixed before immunoprecipitation; co-IP; the two proteins synthesized individually in reticulocyte lysate and mixed just before immunoprecipitation; anti-HA antibody agarose beads, 3 h at 4°C, buffer A
[3] = target: urate oxidase (UOX), untagged, in vitro synthesized (mouse) (UniProt P25688); test: condition: only synthesized for just 45 min, without chase; sucrose gradient centrifugation; 35S-labelled protein synthesized for a short time only (30 min ACOX1, 45 min UOX), no chase; 5-30% sucrose in buffer B (50 mM Tris-HCl pH 7.5, 150 mM NaCl, 1 mM EDTA, 1 mM DTT), 39 000 r.p.m., 29 h, 4°C; ovalbumin, BSA and IgGs as standards
[4] = target: T1, 2HA-UOX, in vitro synthesized (mouse); test: co-IP; untagged (or Flag-tagged) and 2HA-tagged protein co-synthesized in reticulocyte lysate without PEX5 (30 min for ACOX1, 45 min for UOX), chased 4 h with cycloheximide; PEX5 added before the IP to make samples identical; anti-HA antibody agarose beads, 3 h at 4°C, buffer A (50 mM Tris-HCl pH 8.0, 150 mM NaCl, 1 mM EDTA, 10% glycerol, 0.1% Triton X-100); SDS-PAGE/autoradiography

B1: urate oxidase (UOX), untagged, in vitro synthesized (protein, UniProt P25688 1-303)
chain: MAHYHDNYGKNDEVEFVRTGYGKDMVKVLHIQRDGKYHSIKEVATSVQLTLRSKKDYLHGDNSDIIPTDTIKNTVHVLAKLRGIRNIETFAMNICEHFLSSFNHVTRAHVYVEEVPWKRFEKNGIKHVHAFIHTPTGTHFCEVEQMRNGPPVIHSGIKDLKVLKTTQSGFEGFLKDQFTTLPEVKDRCFATQVYCKWRYQRRDVDFEAIWGAVRDIVLQKFAGPYDKGEYSPSVQKTLYDIQVLSLSQLPEIEDMEISLPNIHYFNIDMSKMGLINKEEVLLPLDNPYGKITGTVKRKLPSRL
modifications: 35S-methionine labelled
[1]
  binding: no binding
[2]
  binding: no binding
[3]
  binding: no binding
[4]
  binding: binds
